Laboratory results: the supplement of paper PMC10849652
Some of the results follow.

Sequences of proteins named here, by UniProt entry; tags and fusion partners are left off. A change or cut given only in a name is not applied to a line headed by its entry.
UniProt P46926: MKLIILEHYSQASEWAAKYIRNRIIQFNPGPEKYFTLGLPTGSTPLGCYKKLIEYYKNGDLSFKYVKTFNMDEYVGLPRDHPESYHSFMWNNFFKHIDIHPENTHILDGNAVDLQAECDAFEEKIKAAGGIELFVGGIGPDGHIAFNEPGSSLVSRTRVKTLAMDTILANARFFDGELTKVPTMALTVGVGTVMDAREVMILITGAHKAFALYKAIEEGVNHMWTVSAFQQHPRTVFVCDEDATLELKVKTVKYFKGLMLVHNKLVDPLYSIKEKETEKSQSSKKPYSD
UniProt Q7Z2K8: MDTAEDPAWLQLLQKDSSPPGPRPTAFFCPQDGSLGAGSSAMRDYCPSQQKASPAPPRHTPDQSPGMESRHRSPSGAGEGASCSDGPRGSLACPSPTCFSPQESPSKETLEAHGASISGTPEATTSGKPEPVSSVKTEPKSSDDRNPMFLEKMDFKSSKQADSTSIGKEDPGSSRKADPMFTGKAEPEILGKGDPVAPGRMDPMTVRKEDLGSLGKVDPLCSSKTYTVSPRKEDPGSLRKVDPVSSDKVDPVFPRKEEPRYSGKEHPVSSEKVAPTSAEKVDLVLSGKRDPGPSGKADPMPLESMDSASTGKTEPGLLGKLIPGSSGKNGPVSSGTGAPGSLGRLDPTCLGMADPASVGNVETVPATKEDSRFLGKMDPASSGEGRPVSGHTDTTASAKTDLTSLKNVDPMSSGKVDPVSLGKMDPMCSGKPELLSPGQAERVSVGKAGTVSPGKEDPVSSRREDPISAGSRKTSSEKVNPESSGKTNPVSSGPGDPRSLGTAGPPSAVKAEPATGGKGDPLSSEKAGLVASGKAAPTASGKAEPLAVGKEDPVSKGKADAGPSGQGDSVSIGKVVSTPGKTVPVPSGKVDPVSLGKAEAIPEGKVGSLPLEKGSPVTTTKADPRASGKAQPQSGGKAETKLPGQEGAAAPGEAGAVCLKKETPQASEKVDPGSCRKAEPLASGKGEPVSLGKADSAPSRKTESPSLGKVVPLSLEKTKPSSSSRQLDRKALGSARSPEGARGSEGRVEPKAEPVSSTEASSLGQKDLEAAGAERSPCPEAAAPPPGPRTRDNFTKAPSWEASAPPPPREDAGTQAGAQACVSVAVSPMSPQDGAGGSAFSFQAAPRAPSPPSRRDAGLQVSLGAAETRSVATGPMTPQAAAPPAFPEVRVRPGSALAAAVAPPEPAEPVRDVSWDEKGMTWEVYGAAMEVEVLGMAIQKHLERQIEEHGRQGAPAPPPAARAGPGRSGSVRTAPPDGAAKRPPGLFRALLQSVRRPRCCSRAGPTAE
UniProt Q8IVV7: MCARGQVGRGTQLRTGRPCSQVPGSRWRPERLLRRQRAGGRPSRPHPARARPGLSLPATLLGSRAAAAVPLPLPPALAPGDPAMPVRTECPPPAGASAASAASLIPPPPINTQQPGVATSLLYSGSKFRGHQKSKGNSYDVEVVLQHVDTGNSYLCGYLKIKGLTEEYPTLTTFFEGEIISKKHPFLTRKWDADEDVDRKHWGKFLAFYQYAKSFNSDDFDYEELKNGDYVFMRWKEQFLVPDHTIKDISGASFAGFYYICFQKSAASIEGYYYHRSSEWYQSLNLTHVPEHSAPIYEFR
UniProt Q8IXQ4: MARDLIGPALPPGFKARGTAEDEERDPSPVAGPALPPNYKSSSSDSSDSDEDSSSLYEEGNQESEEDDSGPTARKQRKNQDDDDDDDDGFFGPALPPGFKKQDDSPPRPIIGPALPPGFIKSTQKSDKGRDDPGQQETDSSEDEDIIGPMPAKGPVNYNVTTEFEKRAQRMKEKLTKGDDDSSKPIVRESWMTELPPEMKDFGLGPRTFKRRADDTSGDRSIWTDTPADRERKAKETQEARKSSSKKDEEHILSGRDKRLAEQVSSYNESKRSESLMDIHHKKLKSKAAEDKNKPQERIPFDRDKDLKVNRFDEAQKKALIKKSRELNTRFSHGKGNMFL
UniProt Q9UJJ9: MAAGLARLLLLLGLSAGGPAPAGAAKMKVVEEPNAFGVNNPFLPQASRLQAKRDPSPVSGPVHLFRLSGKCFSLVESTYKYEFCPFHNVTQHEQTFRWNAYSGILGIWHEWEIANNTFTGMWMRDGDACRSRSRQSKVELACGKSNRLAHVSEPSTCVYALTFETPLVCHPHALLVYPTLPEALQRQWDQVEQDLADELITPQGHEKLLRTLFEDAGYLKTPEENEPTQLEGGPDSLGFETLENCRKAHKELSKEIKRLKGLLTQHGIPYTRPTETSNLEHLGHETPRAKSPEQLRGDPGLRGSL
UniProt Q5T7V8: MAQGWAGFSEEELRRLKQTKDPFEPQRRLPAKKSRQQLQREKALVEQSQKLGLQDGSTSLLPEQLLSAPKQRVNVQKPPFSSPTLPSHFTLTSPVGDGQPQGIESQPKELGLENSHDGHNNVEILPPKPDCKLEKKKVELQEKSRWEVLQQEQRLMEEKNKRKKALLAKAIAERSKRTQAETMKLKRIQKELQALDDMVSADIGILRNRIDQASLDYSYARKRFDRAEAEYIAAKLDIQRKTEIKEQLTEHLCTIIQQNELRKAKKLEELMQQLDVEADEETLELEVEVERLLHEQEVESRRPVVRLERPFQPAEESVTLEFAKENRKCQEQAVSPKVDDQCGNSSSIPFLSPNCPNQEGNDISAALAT
UniProt P21695: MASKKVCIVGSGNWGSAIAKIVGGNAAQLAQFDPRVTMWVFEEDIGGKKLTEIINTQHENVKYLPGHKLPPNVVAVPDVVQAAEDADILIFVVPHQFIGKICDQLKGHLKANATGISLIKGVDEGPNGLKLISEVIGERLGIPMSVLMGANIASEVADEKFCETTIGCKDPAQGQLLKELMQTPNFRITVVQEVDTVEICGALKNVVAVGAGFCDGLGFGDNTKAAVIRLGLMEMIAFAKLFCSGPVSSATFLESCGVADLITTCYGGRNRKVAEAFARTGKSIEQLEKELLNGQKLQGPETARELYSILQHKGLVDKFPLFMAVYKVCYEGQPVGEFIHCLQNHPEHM
UniProt Q9P107: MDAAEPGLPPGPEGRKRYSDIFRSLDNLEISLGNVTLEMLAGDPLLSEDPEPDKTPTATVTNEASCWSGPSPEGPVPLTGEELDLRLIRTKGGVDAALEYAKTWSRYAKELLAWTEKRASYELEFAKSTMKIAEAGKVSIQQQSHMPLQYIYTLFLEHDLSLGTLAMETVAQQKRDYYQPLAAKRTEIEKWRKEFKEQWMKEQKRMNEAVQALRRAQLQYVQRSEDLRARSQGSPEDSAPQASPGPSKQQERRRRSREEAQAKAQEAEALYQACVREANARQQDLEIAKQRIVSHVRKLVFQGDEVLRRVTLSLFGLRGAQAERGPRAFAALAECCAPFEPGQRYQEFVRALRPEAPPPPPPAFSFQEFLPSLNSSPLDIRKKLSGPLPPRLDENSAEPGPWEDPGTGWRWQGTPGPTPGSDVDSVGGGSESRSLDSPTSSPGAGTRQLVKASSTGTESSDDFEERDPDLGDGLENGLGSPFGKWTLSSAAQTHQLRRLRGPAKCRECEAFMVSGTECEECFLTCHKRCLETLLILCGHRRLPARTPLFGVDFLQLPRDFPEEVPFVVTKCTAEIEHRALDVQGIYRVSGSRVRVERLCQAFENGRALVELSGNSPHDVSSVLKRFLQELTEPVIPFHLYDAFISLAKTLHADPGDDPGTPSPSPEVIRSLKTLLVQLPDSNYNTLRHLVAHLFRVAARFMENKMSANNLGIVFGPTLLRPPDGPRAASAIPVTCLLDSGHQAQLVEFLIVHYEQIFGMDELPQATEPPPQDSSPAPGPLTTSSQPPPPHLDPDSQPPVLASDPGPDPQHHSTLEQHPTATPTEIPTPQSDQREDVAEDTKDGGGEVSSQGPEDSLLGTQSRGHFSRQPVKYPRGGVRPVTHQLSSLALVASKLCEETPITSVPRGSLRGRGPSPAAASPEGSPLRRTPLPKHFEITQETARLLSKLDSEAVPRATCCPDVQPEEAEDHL
UniProt Q96EK6: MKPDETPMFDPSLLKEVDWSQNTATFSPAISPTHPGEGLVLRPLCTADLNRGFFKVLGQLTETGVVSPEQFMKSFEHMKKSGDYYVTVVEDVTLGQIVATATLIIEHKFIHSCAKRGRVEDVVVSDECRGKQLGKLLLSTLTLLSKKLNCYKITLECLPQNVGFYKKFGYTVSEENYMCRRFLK

Tests used:
Experiment in all cases: log2 fold change, soluble protein after heating vs DMSO (PISA); higher = thermal stabilisation; K562 lysate, 10 uM; active = over 0.2 and 3.5 SD of the protein, either way, in both replicates (recomputed)
vemurafenib = compound: CCCS(=O)(=O)Nc1ccc(F)c(C(=O)c2c[nH]c3ncc(-c4ccc(Cl)cc4)cc23)c1F [vemurafenib]
Summary of the method: (§1)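 A 30 min treatment with 10 μM compound was applied to crude K562 extract at 1 mg/mL protein in PBS pH 7.4 with 1 mM MgCl2. Heating for 3 min spanned 48°C-58°C, after which aliquots were pooled, adjusted to 0.5% NP-40 at 4°C and spun at 21,000xg for 90 min. TMTpro 16plex LC-MS/MS of the supernatant, with channel sums equalised, gave values recorded as log-two fold change in thermal stability against solvent controls, from duplicates.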

[1] = compound: CCCS(=O)(=O)Nc1ccc(F)c(C(=O)c2c[nH]c3ncc(Cl)cc23)c1F
Summary of the method: as §1

barasertib = compound: CCN(CCCOc1ccc2c(Nc3cc(CC(=O)Nc4cccc(F)c4)[nH]n3)ncnc2c1)CCOP(=O)(O)O [barasertib]
Summary of the method: as §1

[2] = compound: CC[C@@H]1C(=O)N(C)c2cnc(Nc3ccc(C(=O)NC4CCN(C)CC4)cc3OC)nc2N1C1CCCC1
Summary of the method: as §1

volasertib = compound: CC[C@@H]1C(=O)N(C)c2cnc(Nc3ccc(C(=O)N[C@H]4CC[C@H](N5CCN(CC6CC6)CC5)CC4)cc3OC)nc2N1C(C)C [volasertib]
Summary of the method: as §1

[3] = compound: CCn1c(C(=O)N(C2CC2)C2CC2)cc2c3c(ncn3C)c(Nc3cc(C)n(C)n3)nc21
Summary of the method: as §1

[4] = compound: CCn1cc(-c2ccnc3[nH]c(-c4cccc(CN(C)C)c4)cc23)c(-c2ccc(NC(=O)N(C)C)cc2)n1
Summary of the method: as §1

[5] = compound: CN1CCC(CNc2ccc3ncc(-c4cccc(OC(F)(F)F)c4)n3n2)CC1
Summary of the method: as §1

saracatinib = compound: CN1CCN(CCOc2cc(OC3CCOCC3)c3c(Nc4c(Cl)ccc5c4OCO5)ncnc3c2)CC1 [saracatinib]
Summary of the method: as §1

sotrastaurin = compound: CN1CCN(c2nc(C3=C(c4c[nH]c5ccccc45)C(=O)NC3=O)c3ccccc3n2)CC1 [sotrastaurin]
Summary of the method: as §1

alvocidib = compound: CN1CC[C@H](c2c(O)cc(O)c3c(=O)cc(-c4ccccc4Cl)oc23)[C@H](O)C1 [alvocidib]
Summary of the method: as §1

Tubastatin A = compound: CN1CCc2c(c3ccccc3n2Cc2ccc(C(=O)NO)cc2)C1 [Tubastatin A]
Summary of the method: as §1

[6] = compound: CNC(=O)C1=CC=CC=C1NC2=NC(=NC=C2Cl)NC3=C(C=C(C=C3)N4CCOCC4)OC
Summary of the method: as §1

defactinib = compound: CNC(=O)c1ccc(Nc2ncc(C(F)(F)F)c(NCc3nccnc3N(C)S(C)(=O)=O)n2)cc1 [defactinib]
Summary of the method: as §1

[7] = compound: CNc1nc(-c2ccc3c(N)n[nH]c3c2)cc(N2C[C@@H](C(=O)NC3CCCCC3)CC[C@H]2C)n1
Summary of the method: as §1

encorafenib = compound: COC(=O)N[C@@H](C)CNc1nccc(-c2cn(C(C)C)nc2-c2cc(Cl)cc(NS(C)(=O)=O)c2F)n1 [encorafenib]
Summary of the method: as §1

[8] = compound: COC(=O)[C@H](CCSC)NC(=O)C1=C(C=C(C=C1)NC[C@H](CS)N)C2=CC=CC=C2
Summary of the method: as §1

alisertib = compound: COc1cc(Nc2ncc3c(n2)-c2ccc(Cl)cc2C(c2c(F)cccc2OC)=NC3)ccc1C(=O)O [alisertib]
Summary of the method: as §1

[9] = compound: COc1cc2nc(-c3cc(F)ccc3O)nc(N[C@@H]3CNC[C@H]3C(C)(C)O)c2cc1OC
Summary of the method: as §1

gefitinib = compound: COc1cc2ncnc(Nc3ccc(F)c(Cl)c3)c2cc1OCCCN1CCOCC1 [gefitinib]
Summary of the method: as §1

Measured: log2 fold change

GNPDA1 (UniProt P46926)
inactive: vemurafenib -0.002 | [1] 0.02 | barasertib -0.035 | [2] -0.03 | volasertib 0.016 | [3] 0.015 | [4] -0.061 | [5] 0.063 | saracatinib -0.003 | sotrastaurin -0.002 | alvocidib -0.02 | Tubastatin A 0.032 | [6] -0.001 | defactinib -0.003 | [7] 0.059 | encorafenib 0.017 | [8] -0.053 | alisertib 0.001 | [9] -0.012 | gefitinib 0.01

GPRIN1 (UniProt Q7Z2K8)
inactive: vemurafenib 0.006 | [1] -0.017 | barasertib 0.038 | [2] 0.064 | volasertib -0.035 | [3] 0.002 | [4] 0.103 | [5] 0.009 | saracatinib 0.011 | sotrastaurin 0.014 | alvocidib 0.005 | Tubastatin A 0.043 | [6] 0.042 | defactinib 0.019 | [7] 0.06 | encorafenib -0.018 | [8] -0.029 | alisertib 0.034 | [9] -0.026 | gefitinib 0.039

GID4 (UniProt Q8IVV7)
inactive: vemurafenib 0.019 | [1] -0.031 | barasertib -0.044 | [2] 0.078 | volasertib 0.051 | [3] 0.021 | [4] -0.112 | [5] 0.011 | saracatinib -0.144 | sotrastaurin -0.059 | alvocidib 0.045 | Tubastatin A -0.041 | [6] -0.001 | defactinib 0.017 | [7] 0.035 | encorafenib -0.058 | [8] -0.013 | alisertib -0.023 | [9] -0.029 | gefitinib -0.012

2 records picked at random from those above, as already listed:
GID4 (UniProt Q8IVV7)
inactive: vemurafenib 0.019 | [1] -0.031 | barasertib -0.044 | [2] 0.078 | volasertib 0.051 | [3] 0.021 | [4] -0.112 | [5] 0.011 | saracatinib -0.144 | sotrastaurin -0.059 | alvocidib 0.045 | Tubastatin A -0.041 | [6] -0.001 | defactinib 0.017 | [7] 0.035 | encorafenib -0.058 | [8] -0.013 | alisertib -0.023 | [9] -0.029 | gefitinib -0.012

GPRIN1 (UniProt Q7Z2K8)
inactive: vemurafenib 0.006 | [1] -0.017 | barasertib 0.038 | [2] 0.064 | volasertib -0.035 | [3] 0.002 | [4] 0.103 | [5] 0.009 | saracatinib 0.011 | sotrastaurin 0.014 | alvocidib 0.005 | Tubastatin A 0.043 | [6] 0.042 | defactinib 0.019 | [7] 0.06 | encorafenib -0.018 | [8] -0.029 | alisertib 0.034 | [9] -0.026 | gefitinib 0.039

Additional records follow:

GPALPP1 (UniProt Q8IXQ4)
inactive: vemurafenib 0.008 | [1] -0.004 | barasertib -0.029 | [2] 0.082 | volasertib 0.005 | [3] -0.02 | [4] 0.228 | [5] 0.03 | saracatinib 0.024 | sotrastaurin -0.047 | alvocidib -0.043 | Tubastatin A 0.036 | [6] -0.012 | defactinib -0.006 | [7] 0.063 | encorafenib 0.013 | [8] -0.016 | alisertib 0.007 | [9] 0.018 | gefitinib 0.07

GNPTG (UniProt Q9UJJ9)
inactive: vemurafenib 0.061 | [1] 0.035 | barasertib -0.052 | [2] 0.039 | volasertib 0.042 | [3] -0.006 | [4] 0.009 | [5] 0.015 | saracatinib 0.113 | sotrastaurin 0.049 | alvocidib -0.011 | Tubastatin A 0.102 | [6] 0.033 | defactinib -0.051 | [7] -0.084 | encorafenib -0.1 | [8] 0.109 | alisertib 0.093 | [9] 0.023 | gefitinib 0.053

GORAB (UniProt Q5T7V8)
inactive: vemurafenib 0.121 | [1] 0.02 | barasertib -0.013 | [2] 0.07 | volasertib 0.005 | [3] -0.024 | [4] 0.088 | [5] -0.012 | saracatinib -0.023 | sotrastaurin 0.001 | alvocidib 0.001 | Tubastatin A 0.043 | [6] 0.045 | defactinib 0.143 | [7] 0.109 | encorafenib 0.06 | [8] -0.026 | alisertib -0.006 | [9] 0.016 | gefitinib -0.021

GPD1 (UniProt P21695)
inactive: vemurafenib 0.003 | [1] 0.065 | barasertib -0.007 | [2] 0.146 | volasertib 0.025 | [3] -0.206 | [4] -0.068 | [5] 0.025 | saracatinib -0.004 | sotrastaurin 0 | alvocidib 0.026 | Tubastatin A 0.145 | [6] -0.065 | defactinib -0.165 | [7] 0.306 | encorafenib -0.048 | [8] 0.091 | alisertib 0.177 | [9] 0.187 | gefitinib -0.059

GMIP (UniProt Q9P107)
inactive: vemurafenib 0.041 | [1] 0.048 | barasertib -0.024 | [2] -0.01 | volasertib 0 | [3] -0.005 | [4] -0.027 | [5] -0.004 | saracatinib 0.007 | sotrastaurin 0.034 | alvocidib -0.078 | Tubastatin A -0.139 | [6] 0.088 | defactinib 0.033 | [7] -0.01 | encorafenib 0.061 | [8] 0.031 | alisertib -0.014 | [9] -0.078 | gefitinib 0.11

GNPNAT1 (UniProt Q96EK6)
inactive: vemurafenib -0.029 | [1] 0.04 | barasertib -0.023 | [2] 0 | volasertib 0.037 | [3] 0.005 | [4] 0.171 | [5] 0.024 | saracatinib -0.007 | sotrastaurin -0.148 | alvocidib 0.005 | Tubastatin A 0.006 | [6] 0.048 | defactinib 0.02 | [7] 0.013 | encorafenib -0.014 | [8] -0.046 | alisertib -0.003 | [9] -0.037 | gefitinib -0.097
